Values from PubChem BioAssay AID1671195 (Yale University, 2021)
Assay: 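Regulators of LDL receptor activity judged by labelled LDL uptake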 (primary screen). Cells: human Huh7 hepatoma cells. Reagent: siRNA pool against human genes, 18 nM. Duration: about 2 to 2.5 days of knockdown, then 8 h LDL uptake. Challenge: DiI-labelled LDL at 30 µg/ml for 8 h, in lipoprotein-deficient serum medium. Measurement: 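Per-cell DiI-LDL intensity by automated imaging; well means scaled to the plate median and given as a robust z-score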. Reading the numbers: robust z-score: higher = more LDL uptake after knockdown. Active means: 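Active when two or more replicates show a robust z-score above 2 or below -2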.
The deposit covers about 22,000 reagents; shown is an unselected part. Over the whole deposit, about 1,510 (6.9%) are marked active. 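Active includes knockdowns raising or lowering LDL uptake; positive z-scores mean more uptake, negative mean less.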 Entries without a mark were called inactive.

no.	target	robust z-score, replicate 1	robust z-score, replicate 2	robust z-score, replicate 3
1	MORC2 (MORC family CW-type zinc finger 2)	-0.037	-0.0576	0.173
2	LSM1 (LSM1 homolog, mRNA degradation associated)	0.733	0.208	0.404
3	CALR3 (calreticulin 3)	-0.204	-0.203	-0.051
4	LOC121792 (retired record)	-0.596	-1	-0.519
5	LRIG1 (leucine rich repeats and immunoglobulin like domains 1)	1.57	1.26	1.37
6	RBM28 (RNA binding motif protein 28)	-1.28	-1.7	-1.98
7	SLC39A14	-0.369	-0.0379	-0.422
8	RPS26P35 (ribosomal protein S26 pseudogene 35)	1.25	0.521	0.662
9	ERBB3 (erb-b2 receptor tyrosine kinase 3)	-0.449	-1.51	-1.03
10	MAD2L1 (mitotic arrest deficient 2 like 1)	1.49	0.953	1.7
11	TAS2R14 (taste 2 receptor member 14)	-0.58	-0.621	-1.2
12	CCDC39 (coiled-coil domain 39 molecular ruler complex subunit)	0.0179	0.204	0.295
13	POLR3G (RNA polymerase III subunit G)	0.38	1.83	1.36
14	TRIM60 (tripartite motif containing 60)	1.77	-0.733	0.113
15	CXorf38 (chromosome X open reading frame 38)	0.723	0.699	1.15
16	PSG3 (pregnancy specific beta-1-glycoprotein 3)	-0.27	-0.305	0.397
17	SLC25A38	-0.174	0.496	-0.174
18	JMJD8 (jumonji domain containing 8)	0.084	-0.193	-0.244
19	SPRR2F (small proline rich protein 2F)	-1.3	0.0406	-0.631
20	DGCR8 (DGCR8 microprocessor complex subunit)	0.259	-1.15	-0.627
21	IER5 (immediate early response 5)	2.35 (active)	1.82	2
22	DUS3L (dihydrouridine synthase 3 like)	-0.404	-0.496	0.874
23	RPS7 (ribosomal protein S7)	-1.13	-1.1	-0.187
24	TMEM178A (transmembrane protein 178A)	1.61 (active)	2.17	2.2
25	COL6A1 (collagen type VI alpha 1 chain)	1.52	1.71	1.9
26	TRIP12 (thyroid hormone receptor interactor 12)	1.99	0.389	0.681
27	LRRC8C-DT (LRRC8C divergent transcript)	1.48	1.22	1.6
28	LOC440886 (retired record)	0.0232	0.379	0.891
29	TRMT61B (tRNA methyltransferase 61B)	-1.81	-0.134	-1.18
30	THA1P (threonine aldolase 1, pseudogene)	0.0344	0.552	0.459
31	TBCA (tubulin folding cofactor A)	0.349	-0.342	0.407
32	ING3 (inhibitor of growth family member 3)	-1.23	-1.12	-1.31
33	PHLDA3 (pleckstrin homology like domain family A member 3)	1.09	-0.327	-0.0163
34	EGFR (epidermal growth factor receptor)	0.165	1.17	0.203
35	ZFX (zinc finger protein X-linked)	0.845	0.621	0.311
36	MED6 (mediator complex subunit 6)	-1.4	-1.33	-1.34
37	GFAP (glial fibrillary acidic protein)	0.175	-0.5	0.98
38	RAB33B (RAB33B, member RAS oncogene family)	-1.38	0.231	-0.688
39	RND2 (Rho family GTPase 2)	-1.48	-1.16	-1.23
40	HSD3B1	0.662	-0.637	0.368
41	TCF12 (transcription factor 12)	-0.404	-0.128	-0.44
42	SLC25A44	0.365	0.991	2.43
43	SDCBP (syndecan binding protein)	0.0363	0.176	0.235
44	PPP1R14A (protein phosphatase 1 regulatory inhibitor subunit 14A)	4.63 (active)	5.27	4.77
45	EPHB6 (EPH receptor B6)	-0.663	-0.82	-1
46	WDR26 (WD repeat domain 26)	-1.27	-1.56	-1.52
